Data as given in PubChem BioAssay AID1224828 (NIAID, 2016)
Shown is a random part of about 17,000 deposited reagents. 762 of all reagents (4.5%) were called active. 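Active calls include both raised and lowered p65 entry, mostly lowered; wells with fewer than 50 cells lack a z-score.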 Raw values are not corrected between plates. A number with no mark means an inactive call. The numbers tell different reagents against one gene apart.

Aim: 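Find genes required for NF-kappaB p65 moving into the nucleus after LPS in mouse macrophages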 (primary screen)
System: mouse RAW264.7 G9 macrophage reporter cells (GFP-p65, Tnf promoter-mCherry)
Reagents: siRNA pool against mouse genes, 100 nM
Duration: 2 days siRNA transfection, then 40 min LPS before fixation
Conditions: LPS (Salmonella minnesota R595) at 10 ng/ml
Measured: 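Imaged p65 nuclear translocation ratio, normalised to the plate median, converted to robust z-scores and averaged across two replicates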
Direction: p65 translocation robust z-score: higher = more nuclear NF-kappaB p65 after LPS than the plate median; nuclear/cytoplasmic p65 ratio: higher = more nuclear NF-kappaB p65
Call rule: 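Active if robust z is above 3.3 (negative regulators) or below -1.56, the Tlr4 control median (positive regulators); activity score 50 or more; control wells not called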
Calls: active = hit (p65 shift raised or lowered); inactive = no clear change

| Gene | pool no. | p65 translocation robust z-score | nuclear/cytoplasmic p65 ratio, rep 1 | nuclear/cytoplasmic p65 ratio, rep 2 | low cell count flag |
| --- | --- | --- | --- | --- | --- |
| Prpf38b | 1 | – | 1.46 | 1.22 | fewer than 50 cells per well; well left out of scoring |
| Lrfn3 | 1 | 1.86 | 1.96 | 1.86 | enough cells to score |
| Csn2 (casein beta) | 1 | -0.41 | 1.46 | 1.78 | enough cells to score |
| Ankle1 (ankyrin repeat and LEM domain containing 1) | 1 | – | 1.09 | 1.08 | fewer than 50 cells per well; well left out of scoring |
| Lsm14a (LSM14A mRNA processing body assembly factor) | 1 | – | 1.32 | 1.22 | fewer than 50 cells per well; well left out of scoring |
| Timm10 (translocase of inner mitochondrial membrane 10) | 1 | – | 1.46 | 1.11 | fewer than 50 cells per well; well left out of scoring |
| Gna14 (guanine nucleotide binding protein, alpha 14) | 1 | 0.07 | 1.49 | 1.62 | enough cells to score |
| Galntl5 | 1 | – | 1.37 | 0 | fewer than 50 cells per well; well left out of scoring |
| Cyp3a44 (cytochrome P450, family 3, subfamily a, polypeptide 44) | 1 | 0.18 | 1.57 | 1.85 | enough cells to score |
| Frmd5 (FERM domain containing 5) | 1 | – | 1.11 | 1.45 | fewer than 50 cells per well; well left out of scoring |
| Or8u8 (olfactory receptor family 8 subfamily U member 8) | 1 | 0.3 | 1.46 | 1.3 | enough cells to score |
| Npff (neuropeptide FF-amide peptide precursor) | 1 | 0.06 | 1.74 | 1.53 | enough cells to score |
| Nbr1 (NBR1, autophagy cargo receptor) | 1 | -0.05 | 1.46 | 1.32 | enough cells to score |
| Cyp4f14 (cytochrome P450, family 4, subfamily f, polypeptide 14) | 1 | -1.07 | 1.41 | 1.62 | enough cells to score |
| Or7g34 (olfactory receptor family 7 subfamily G member 34) | 1 | 0.12 | 1.43 | 1.31 | enough cells to score |
| Itga6 (integrin alpha 6) | 1 | – | 1.49 | 1.48 | fewer than 50 cells per well; well left out of scoring |
| Cd300ld (CD300 molecule like family member d) | 1 | -1.47 | 0.997 | 1.09 | enough cells to score |
| Plekhs1 (pleckstrin homology domain containing S1) | 1 | -1.85 (active) | 1.24 | 1.22 | enough cells to score |
| Ccr1 (C-C motif chemokine receptor 1) | 1 | – | 1.42 | 1.78 | fewer than 50 cells per well; well left out of scoring |
| Eloa (elongin A) | 1 | 0.49 | 1.61 | 1.57 | enough cells to score |
| Alox5 (arachidonate 5-lipoxygenase) | 1 | 1.29 | 1.62 | 1.55 | enough cells to score |
| Gpr88 (G-protein coupled receptor 88) | 1 | -0.73 | 1.36 | 1.52 | enough cells to score |
| D630004N19Rik (RIKEN cDNA D630004N19 gene) | 1 | – | 1.49 | 2.4 | fewer than 50 cells per well; well left out of scoring |
| Cdc42ep2 (CDC42 effector protein 2) | 1 | -0.85 | 1.42 | 1.7 | enough cells to score |
| Stat2 (signal transducer and activator of transcription 2) | 1 | -1.33 | 1.36 | 1.36 | enough cells to score |
| Cldn11 (claudin 11) | 1 | -0.86 | 1.3 | 1.27 | enough cells to score |
| Or52h1 (olfactory receptor family 52 subfamily H member 1) | 1 | 0.95 | 1.58 | 1.37 | enough cells to score |
| Rnf213 (ring finger protein 213) | 1 | 0.67 | 1.71 | 1.86 | enough cells to score |
| Zic2 (zinc finger protein of the cerebellum 2) | 1 | 1.13 | 1.83 | 1.63 | enough cells to score |
| Adprs (ADP-ribosylserine hydrolase) | 1 | -0.17 | 1.66 | 1.53 | enough cells to score |
| Dnaaf1 (dynein, axonemal assembly factor 1) | 1 | -0.2 | 1.24 | 0.983 | enough cells to score |
| Fktn (fukutin) | 1 | 1.1 | 1.63 | 1.49 | enough cells to score |
| Pik3cd | 1 | 0.26 | 1.53 | 1.45 | enough cells to score |
| Or2ag15 (olfactory receptor family 2 subfamily AG member 15) | 1 | – | 1.27 | 1.26 | fewer than 50 cells per well; well left out of scoring |
| Golga2 (golgin A2) | 1 | 0.47 | 1.63 | 1.69 | enough cells to score |
| Foxe3 (forkhead box E3) | 1 | -0.68 | 1.32 | 1.31 | enough cells to score |
| S100a14 (S100 calcium binding protein A14) | 1 | -0.05 | 1.53 | 1.49 | enough cells to score |
| Zfp280c (zinc finger protein 280C) | 1 | -0.56 | 1.37 | 1.15 | enough cells to score |
| Cnksr2 (connector enhancer of kinase suppressor of Ras 2) | 1 | -0.01 | 1.61 | 1.76 | enough cells to score |
| Zc3h6 (zinc finger CCCH type containing 6) | 1 | – | 1.11 | 1.18 | fewer than 50 cells per well; well left out of scoring |
| Zc3h6 (zinc finger CCCH type containing 6) | 2 | – | 1.29 | 1.41 | fewer than 50 cells per well; well left out of scoring |
| Ptprg (protein tyrosine phosphatase receptor type G) | 1 | 1.19 | 1.89 | 1.52 | enough cells to score |
| Emx2 (empty spiracles homeobox 2) | 1 | 0.98 | 1.57 | 1.52 | enough cells to score |
| Or13p10 (olfactory receptor family 13 subfamily P member 10) | 1 | 0.12 | 1.48 | 1.26 | enough cells to score |
| Mug2 (murinoglobulin 2) | 1 | -0.06 | 1.8 | 1.56 | enough cells to score |
| Zfp654 (zinc finger protein 654) | 1 | – | 1.42 | 1.47 | fewer than 50 cells per well; well left out of scoring |
| Nalcn (sodium leak channel, non-selective) | 1 | 0.34 | 1.37 | 1.63 | enough cells to score |
| Tmcc2 (transmembrane and coiled-coil domains 2) | 1 | – | 1.4 | 1.43 | fewer than 50 cells per well; well left out of scoring |
| Tk1 (thymidine kinase 1) | 1 | 0.45 | 1.75 | 1.45 | enough cells to score |
| Serpini2 (serine (or cysteine) peptidase inhibitor, clade I, member 2) | 1 | 0.78 | 1.64 | 1.6 | enough cells to score |
| Or5ak22 (olfactory receptor family 5 subfamily AK member 22) | 1 | 0.97 | 1.62 | 1.31 | enough cells to score |
| Col23a1 (collagen, type XXIII, alpha 1) | 1 | 0.79 | 1.69 | 1.91 | enough cells to score |
| Or51b6b (olfactory receptor family 51 subfamily B member 6B) | 1 | – | 1.43 | 1.29 | fewer than 50 cells per well; well left out of scoring |
| Hsd3b6 | 1 | – | 1.6 | 1.73 | fewer than 50 cells per well; well left out of scoring |
| Thbs3 (thrombospondin 3) | 1 | 1.39 | 1.61 | 1.82 | enough cells to score |
| Or2a57 (olfactory receptor family 2 subfamily A member 57) | 1 | 0.06 | 1.42 | 1.28 | enough cells to score |
| Bpi (bactericidal permeablility increasing protein) | 1 | 0.64 | 1.77 | 1.65 | enough cells to score |
| Pcdhga1 (protocadherin gamma subfamily A, 1) | 1 | -0.11 | 1.38 | 1.27 | enough cells to score |
| Entpd1 (ectonucleoside triphosphate diphosphohydrolase 1) | 1 | 1.78 | 1.68 | 1.62 | enough cells to score |
| Ccm2 (cerebral cavernous malformation 2) | 1 | -0.05 | 1.56 | 1.81 | enough cells to score |
| Atxn7 (ataxin 7) | 1 | -0.76 | 1.4 | 1.41 | enough cells to score |
| Polb (polymerase (DNA directed), beta) | 1 | -0.28 | 1.41 | 1.42 | enough cells to score |
| Vps33b (vacuolar protein sorting 33B) | 1 | 0.99 | 1.54 | 1.32 | enough cells to score |
| Chd4 (chromodomain helicase DNA binding protein 4) | 1 | -1.78 (active) | 1.37 | 1.15 | enough cells to score |
| Trappc9 (trafficking protein particle complex 9) | 1 | – | 1.61 | 1.23 | fewer than 50 cells per well; well left out of scoring |
| Tnfrsf25 (tumor necrosis factor receptor superfamily, member 25) | 1 | -1.22 | 1.39 | 1.31 | enough cells to score |
| Or1j10 (olfactory receptor family 1 subfamily J member 10) | 1 | -1.81 (active) | 1.3 | 1.22 | enough cells to score |
| Tfdp2 (transcription factor Dp 2) | 1 | -0.52 | 1.55 | 1.52 | enough cells to score |
| Hoxc6 (homeobox C6) | 1 | 0.65 | 1.51 | 1.47 | enough cells to score |
| Rfc4 (replication factor C (activator 1) 4) | 1 | -0.19 | 1.53 | 1.45 | enough cells to score |
| Kif18b (kinesin family member 18B) | 1 | – | 1.01 | 1.04 | fewer than 50 cells per well; well left out of scoring |
| Arhgap26 (Rho GTPase activating protein 26) | 1 | 0.74 | 1.74 | 1.71 | enough cells to score |
| Psma3 (proteasome subunit alpha 3) | 1 | -1.3 | 1.21 | 1.18 | enough cells to score |
| Ddx11 (DEAD/H box helicase 11) | 1 | -0.27 | 1.57 | 1.58 | enough cells to score |
| Mst1r | 1 | – | 1.68 | 1.17 | fewer than 50 cells per well; well left out of scoring |

No new results follow: entries from further up.
| Gene | pool no. | p65 translocation robust z-score | nuclear/cytoplasmic p65 ratio, rep 1 | nuclear/cytoplasmic p65 ratio, rep 2 | low cell count flag |
| --- | --- | --- | --- | --- | --- |
| Lrfn3 | 1 | 1.86 | 1.96 | 1.86 | enough cells to score |
| Csn2 (casein beta) | 1 | -0.41 | 1.46 | 1.78 | enough cells to score |
| Ankle1 (ankyrin repeat and LEM domain containing 1) | 1 | – | 1.09 | 1.08 | fewer than 50 cells per well; well left out of scoring |
| Lsm14a (LSM14A mRNA processing body assembly factor) | 1 | – | 1.32 | 1.22 | fewer than 50 cells per well; well left out of scoring |
| Timm10 (translocase of inner mitochondrial membrane 10) | 1 | – | 1.46 | 1.11 | fewer than 50 cells per well; well left out of scoring |
| Gna14 (guanine nucleotide binding protein, alpha 14) | 1 | 0.07 | 1.49 | 1.62 | enough cells to score |
| Galntl5 | 1 | – | 1.37 | 0 | fewer than 50 cells per well; well left out of scoring |
| Cyp3a44 (cytochrome P450, family 3, subfamily a, polypeptide 44) | 1 | 0.18 | 1.57 | 1.85 | enough cells to score |
| Frmd5 (FERM domain containing 5) | 1 | – | 1.11 | 1.45 | fewer than 50 cells per well; well left out of scoring |
| Or8u8 (olfactory receptor family 8 subfamily U member 8) | 1 | 0.3 | 1.46 | 1.3 | enough cells to score |
| Npff (neuropeptide FF-amide peptide precursor) | 1 | 0.06 | 1.74 | 1.53 | enough cells to score |
| Nbr1 (NBR1, autophagy cargo receptor) | 1 | -0.05 | 1.46 | 1.32 | enough cells to score |
